Laboratory results: paper PMC5557796, “Ligand binding modes from low resolution GPCR models and mutagenesis: chicken bitter taste receptor as a test-case” (Scientific Reports, 2017)

Molecular target: T1, ggTas2r1 (Gallus gallus, UniProt Q2AB83)
T1 construct: gene TAS2R40; full-length receptor with in-frame N-terminal sst3-tag and C-terminal hsv-tag in pcDNA5/FRT; transient in HEK 293T stably expressing chimeric Galpha16gust44
T1 sequence (Q2AB83 1-311): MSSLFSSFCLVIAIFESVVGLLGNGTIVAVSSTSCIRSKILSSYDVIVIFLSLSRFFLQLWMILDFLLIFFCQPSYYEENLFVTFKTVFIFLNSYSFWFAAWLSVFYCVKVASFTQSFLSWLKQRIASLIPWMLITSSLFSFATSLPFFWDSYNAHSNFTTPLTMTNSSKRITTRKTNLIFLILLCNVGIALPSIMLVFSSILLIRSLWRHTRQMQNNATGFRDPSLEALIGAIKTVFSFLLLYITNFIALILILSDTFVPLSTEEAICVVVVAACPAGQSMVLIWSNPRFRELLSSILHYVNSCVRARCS
Test: FLIPR calcium mobilization, Fluo4-AM
Format: cell-based
Conditions: agonist; HEK 293T with Galpha16gust44

## CN(C)CCOC(c1ccccc1)c1ccccc1 [diphenhydramine]
  dose-response ΔF/F: Dose-response relations for the specified compounds in cells expressing point-mutated and native ggTas2r1 constructs
